This note sets out measurements from patent publication US20250283871A1, “COMPOSITIONS AND METHODS FOR MODULATING THE INTERACTION BETWEEN SS18-SSX FUSION ONCOPROTEIN AND NUCLEOSOMES” (Dana-Farber Cancer Institute, Inc., priority 2020, published 2025).

The series deals with BAF complex subunits and histone proteins. Description: Mass spectrometry proteomics of purified HA-SS18 WT and HA-SS18-SSX1 complexes (Tables 5A-5E). Also noted: species or system human.
The mark [1] stands for this setting: HA-SS18WT_CHR_peptides: protein identified in HA-SS18 WT BAF complex purification from nuclease-treated solubilized chromatin (CHR), HEK-293T.

B1: CDK11A (protein, UniProt Q9UQ88 1-783, looked up)
Cyclin-dependent kinase 11A: MGDEKDSWKVKTLDEILQEKKRRKEQEEKAEIKRLKNSDDRDSKRDSLEEGELRDHCMEITIRNSPYRREDSMEDRGEEDDSLAIKPPQQMSRKEKVHHRKDEKRKEKWKHARVKEREHERRKRHREEQDKARREWERQKRREMAREHSRRERDRLEQLERKRERERKMREQQKEQREQKERERRAEERRKEREARREVSAHHRTMREDYSDKVKASHWSRSPPRPPRERFELGDGRKPGEARPAPAQKPAQLKEEKMEERDLLSDLQDISDSERKTSSAESSSAESGSGSEEEEEEEEEEEEEGSTSEESEEEEEEEEEEEEETGSNSEEASEQSAEEVSEEEMSEDEERENENHLLVVPESRFDRDSGESEEAEEEVGEGTPQSSALTEGDYVPDSPALLPIELKQELPKYLPALQGCRSVEEFQCLNRIEEGTYGVVYRAKDKKTDEIVALKRLKMEKEKEGFPITSLREINTILKAQHPNIVTVREIVVGSNMDKIYIVMNYVEHDLKSLMETMKQPFLPGEVKTLMIQLLRGVKHLHDNWILHRDLKTSNLLLSHAGILKVGDFGLAREYGSPLKAYTPVVVTQWYRAPELLLGAKEYSTAVDMWSVGCIFGELLTQKPLFPGNSEIDQINKVFKELGTPSEKIWPGYSELPVVKKMTFSEHPYNNLRKRFGALLSDQGFDLMNKFLTYFPGRRISAEDGLKHEYFRETPLPIDPSMFPTWPAKSEQQRVKRGTSPRPPEGGLGYSQLGDDDLKETGFHLTTTNQGASAAGPGFSLKF
Where the note is “HA-SS18SSX1_CHR_peptides, total peptides of the identified protein”, B1 returned a Total of 2. Under “HA-SS18SSX1_CHR_peptides, unique peptides of the identified protein”, this molecule came in with a Unique of 2. Also, under setting [1], the “Total (total peptides)” value came to 1 and the “Unique (unique peptides)” value was found to be 1.
